{"source": "PubChem BioAssay AID1259284 (Sanger Institute, 2017)", "purpose": "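Kinase genes needed for growth or acting with cancer drugs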 (primary screen)", "cell system": "SW48 human colorectal cancer cells", "reagents": "siRNA pool against human genes", "challenge": "anchor drug BYL719 at 1 µM, cetuximab at 5 µg/ml or trametinib at 10 nM, or DMSO vehicle alone", "measurement": "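Viability scaled to non-targeting control pool, robust z-score from controls, and synergy scores for each drug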", "scale": "robust z-score, no drug: higher = more cells survive knock-down", "active means": "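Called essential when the robust z-score of viability without drug falls below -3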", "calls": "active = essential without drug; inactive = no change without drug", "note": "Here is an unselected part of 794 reagents. In the full data, 16 (2%) were called active. 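Calls concern knock-down without drug only; drug synergy was judged apart, with scores above 0.15 taken as synergy.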 Further read-outs or replicates are left out here. Reagent sequences are not shown. The record does not give: the amount of reagent, the time to read-out."}
{"Gene": "BRAF (GeneID 673)", "PubChem SID": "SID152153735", "robust z-score, no drug": 0.426, "call": "inactive"}
{"Gene": "MINK1 (GeneID 50488)", "PubChem SID": "SID152155809", "robust z-score, no drug": 0.426, "call": "inactive"}
{"Gene": "GK2 (GeneID 2712)", "PubChem SID": "SID56479273", "robust z-score, no drug": 0.426, "call": "inactive"}
{"Gene": "RPS6KB2 (GeneID 6199)", "PubChem SID": "SID152153683", "robust z-score, no drug": 0.426, "call": "inactive"}
{"Gene": "TAOK2 (GeneID 9344)", "PubChem SID": "SID57288958", "robust z-score, no drug": 0.426, "call": "inactive"}
{"Gene": "RELA (GeneID 5970)", "PubChem SID": "SID135620694", "robust z-score, no drug": 0.426, "call": "inactive"}
{"Gene": "DGKK (GeneID 139189)", "PubChem SID": "SID135624472", "robust z-score, no drug": 0.426, "call": "inactive"}
{"Gene": "AMHR2 (GeneID 269)", "PubChem SID": "SID56478996", "robust z-score, no drug": 0.426, "call": "inactive"}
{"Gene": "CDC42BPG (GeneID 55561)", "PubChem SID": "SID135621430", "robust z-score, no drug": 0.426, "call": "inactive"}
{"Gene": "PIP5K1C (GeneID 23396)", "PubChem SID": "SID134310630", "robust z-score, no drug": 0.426, "call": "inactive"}
{"Gene": "CDK15 (GeneID 65061)", "PubChem SID": "SID56478852", "robust z-score, no drug": 0.426, "call": "inactive"}
{"Gene": "KSR1 (GeneID 8844)", "PubChem SID": "SID152156641", "robust z-score, no drug": -0.699, "call": "inactive"}
{"Gene": "IKBKB (GeneID 3551)", "PubChem SID": "SID152150353", "robust z-score, no drug": 0.426, "call": "inactive"}
{"Gene": "DCLK3 (GeneID 85443)", "PubChem SID": "SID152149137", "robust z-score, no drug": 0.135, "call": "inactive"}
{"Gene": "PDK2 (GeneID 5164)", "PubChem SID": "SID56478952", "robust z-score, no drug": 0.426, "call": "inactive"}
{"Gene": "AGK (GeneID 55750)", "PubChem SID": "SID56479172", "robust z-score, no drug": 0.426, "call": "inactive"}
{"Gene": "ALDH18A1 (GeneID 5832)", "PubChem SID": "SID152152799", "robust z-score, no drug": 0.211, "call": "inactive"}
{"Gene": "INSR (GeneID 3643)", "PubChem SID": "SID152149459", "robust z-score, no drug": 0.426, "call": "inactive"}
{"Gene": "PRKG1 (GeneID 5592)", "PubChem SID": "SID152152064", "robust z-score, no drug": 0.426, "call": "inactive"}
{"Gene": "MAP3K21 (GeneID 84451)", "PubChem SID": "SID135620779", "robust z-score, no drug": 0.426, "call": "inactive"}
{"Gene": "INSRR (GeneID 3645)", "PubChem SID": "SID56479015", "robust z-score, no drug": 0.426, "call": "inactive"}
{"Gene": "TBX3 (GeneID 6926)", "PubChem SID": "SID134316486", "robust z-score, no drug": 0.426, "call": "inactive"}
{"Gene": "NEK8 (GeneID 284086)", "PubChem SID": "SID56478901", "robust z-score, no drug": -2.11, "call": "inactive"}
{"Gene": "ALK (GeneID 238)", "PubChem SID": "SID56478483", "robust z-score, no drug": 0.426, "call": "inactive"}
{"Gene": "AKT3 (GeneID 10000)", "PubChem SID": "SID56478465", "robust z-score, no drug": 0.0247, "call": "inactive"}
{"Gene": "CAMK2B (GeneID 816)", "PubChem SID": "SID135620913", "robust z-score, no drug": 0.426, "call": "inactive"}
{"Gene": "RPS6KA3 (GeneID 6197)", "PubChem SID": "SID152150758", "robust z-score, no drug": 0.426, "call": "inactive"}
{"Gene": "STK35 (GeneID 140901)", "PubChem SID": "SID135620978", "robust z-score, no drug": 0.426, "call": "inactive"}

Copied from the listing for reference:
{"Gene": "IKBKB (GeneID 3551)", "PubChem SID": "SID152150353", "robust z-score, no drug": 0.426, "call": "inactive"}
{"Gene": "DCLK3 (GeneID 85443)", "PubChem SID": "SID152149137", "robust z-score, no drug": 0.135, "call": "inactive"}
{"Gene": "PDK2 (GeneID 5164)", "PubChem SID": "SID56478952", "robust z-score, no drug": 0.426, "call": "inactive"}
{"Gene": "AGK (GeneID 55750)", "PubChem SID": "SID56479172", "robust z-score, no drug": 0.426, "call": "inactive"}
